For one compound, MIC results are on record in ChEMBL document CHEMBL1649571, “In vitro activity of TR-700, the active ingredient of the antibacterial prodrug TR-701, a novel oxazolidinone antibacterial agent” (2009).

In brackets after ≈: the same amount, converted by molar mass. Some results are limits rather than exact numbers.

In assay [1] the test system is Enterococcus faecalis. Nature of the assay: Antibacterial activity against vancomycin-susceptible Enterococcus faecalis by CLSI M7-A7 broth microdilution method. In kind it is functional. Put shortly: (§1)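 Reference broth microdilution MIC under aerobic conditions on recent (2005–2008) clinical isolates from U.S. and non-U.S. sites. QC strains run alongside, required to fall within published CLSI ranges.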
On the technique in general: Dilution methods test growth across graded concentrations, often in twofold steps.

The test system of assay [2] is Enterococcus faecalis. The assay can be described thus: Antibacterial activity against vancomycin-resistant Enterococcus faecalis by CLSI M7-A7 broth microdilution method. In kind it is functional. In a few lines: as §1

With `CN[C@H](CC(C)C)C(=O)N[C@H]1C(=O)N[C@@H](CC(N)=O)C(=O)N[C@H]2C(=O)N[C@H]3C(=O)N[C@H](C(=O)N[C@H](C(=O)O)c4cc(O)cc(O)c4-c4cc3ccc4O)[C@H](O)c3ccc(c(Cl)c3)Oc3cc2cc(c3O[C@@H]2O[C@H](CO)[C@@H](O)[C@H](O)[C@H]2O[C@H]2C[C@](C)(N)[C@H](O)[C@H](C)O2)Oc2ccc(cc2Cl)[C@H]1O` [VANCOMYCIN], the MIC (usually the lowest concentration that inhibits growth of the organism) is 0.5 µg/mL (≈ 0.345 µM) in the assay on Enterococcus faecalis [1] and over 4 µg/mL against Enterococcus faecalis [2].
